PubChem BioAssay AID1259308 – NCATS | 2017
Aim: 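Genes whose loss raises luciferase production in HEK293 cells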 (primary screen). System: human HEK293 embryonic kidney cells stably expressing firefly luciferase (HEK-CMV-Luc2-Hygro). Reagents: single siRNA against human genes, 0.8 pmol siRNA per well. Time to read-out: 72 h. Measured: 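Reporter luminescence and viable-cell signal on separate replicate plates, given as percent of non-targeting control and median/MAD z-scores, plus per-cell luciferase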. Scale: total luciferase, z-score and total luciferase, % of control: higher = more reporter protein produced. Active means: 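An siRNA counts as active if its total luciferase robust z-score exceeds 3; genes with two or more such siRNAs out of three were retested with fresh siRNAs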. Meaning of the calls: active = raised luciferase; inactive = no rise.
This is a random part of about 59,000 reagents tested. About 1,510 of them (2.6%) count as active. 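Calls use total luciferase alone and ignore viability, so some active siRNAs may act by altering cell number.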 Unmarked entries are inactive. Reagents against one gene are numbered here. Further read-outs or replicates are left out here.

With knock-down of NFE2L3 (NFE2 like bZIP transcription factor 3) #1, the screen gave total luciferase, z-score 0.553; total luciferase, % of control 92.9.
NFE2L3 (NFE2 like bZIP transcription factor 3) #2 scored total luciferase, z-score -0.101; total luciferase, % of control 79.9.
For NFE2L3 (NFE2 like bZIP transcription factor 3) #3, the entry reads total luciferase, z-score -0.963; total luciferase, % of control 62.7.
Against SLC27A6 #1 the deposit lists total luciferase, z-score 1.14; total luciferase, % of control 105.
Depletion of SLC27A6 #2 gave: total luciferase, z-score -1.28; total luciferase, % of control 56.4.
With knock-down of SLC27A6 #3, the record shows total luciferase, z-score -0.281; total luciferase, % of control 76.3.
With knock-down of CNTN1 (contactin 1) #1 the results were total luciferase, z-score 1.36; total luciferase, % of control 109.
With knock-down of CNTN1 (contactin 1) #2, the screen gave total luciferase, z-score -0.577; total luciferase, % of control 70.4.
With knock-down of CNTN1 (contactin 1) #3 the results were total luciferase, z-score -0.633; total luciferase, % of control 69.3.
With knock-down of CD160 (CD160 molecule) #1, the record shows total luciferase, z-score 1.14; total luciferase, % of control 105.
CD160 (CD160 molecule) #2 gave total luciferase, z-score -0.0771; total luciferase, % of control 80.4.
CD160 (CD160 molecule) #3 showed total luciferase, z-score -1.74; total luciferase, % of control 47.3.

5 entries from above, set out differently:
gene,reagent no.,"total luciferase, z-score","total luciferase, % of control"
SLC27A6,1,1.14,105
SLC27A6,2,-1.28,56.4
SLC27A6,3,-0.281,76.3
CNTN1 (contactin 1),1,1.36,109
CNTN1 (contactin 1),2,-0.577,70.4

Additional records:
PTCH1 (patched 1) #1 scored total luciferase, z-score -1.01; total luciferase, % of control 61.7.
After knock-down of PTCH1 (patched 1) #2 the results were total luciferase, z-score 0.522; total luciferase, % of control 92.3.
PTCH1 (patched 1) #3 showed total luciferase, z-score -3; total luciferase, % of control 22.2.
PNPLA2 (patatin like domain 2, triacylglycerol lipase) #1 scored total luciferase, z-score -1.08; total luciferase, % of control 60.3.
After knock-down of PNPLA2 (patatin like domain 2, triacylglycerol lipase) #2 the results were total luciferase, z-score 1.14; total luciferase, % of control 104.
For PNPLA2 (patatin like domain 2, triacylglycerol lipase) #3 the deposit lists total luciferase, z-score 0.777; total luciferase, % of control 97.3.
After knock-down of GHITM (growth hormone inducible transmembrane protein) #1, the screen gave total luciferase, z-score 0.453; total luciferase, % of control 90.9.
With knock-down of GHITM (growth hormone inducible transmembrane protein) #2, the screen gave total luciferase, z-score -0.45; total luciferase, % of control 72.9.
After knock-down of GHITM (growth hormone inducible transmembrane protein) #3 the results were total luciferase, z-score 2.37; total luciferase, % of control 129.
Silencing of HSF5 (heat shock transcription factor 5) #1 resulted in: total luciferase, z-score -0.342; total luciferase, % of control 75.1.
Depletion of HSF5 (heat shock transcription factor 5) #2 resulted in: total luciferase, z-score -1.32; total luciferase, % of control 55.6.
After knock-down of HSF5 (heat shock transcription factor 5) #3 the results were total luciferase, z-score 0.0568; total luciferase, % of control 83.
For EBF3 (EBF transcription factor 3) #1, the entry reads total luciferase, z-score 0.913; total luciferase, % of control 100.
After knock-down of EBF3 (EBF transcription factor 3) #2 the results were total luciferase, z-score -0.783; total luciferase, % of control 66.3.
Depletion of EBF3 (EBF transcription factor 3) #3 gave: total luciferase, z-score -0.412; total luciferase, % of control 73.7.
Knock-down of NPAP1 (nuclear pore associated protein 1) #1 came out at: total luciferase, z-score 0.443; total luciferase, % of control 90.7.
Against NPAP1 (nuclear pore associated protein 1) #2 the deposit lists total luciferase, z-score -0.355; total luciferase, % of control 74.8.
After knock-down of NPAP1 (nuclear pore associated protein 1) #3, the screen gave total luciferase, z-score 0.313; total luciferase, % of control 88.1.
With knock-down of METTL23 (methyltransferase 23, arginine) #1, the screen gave total luciferase, z-score -0.71; total luciferase, % of control 67.8.
METTL23 (methyltransferase 23, arginine) #2 showed total luciferase, z-score 1.06; total luciferase, % of control 103.
Knock-down of METTL23 (methyltransferase 23, arginine) #3 gave: total luciferase, z-score 0.759; total luciferase, % of control 97.
